# PubChem BioAssay AID2685 (National Center for Advancing Translational Sciences (NCATS), 2010)
# Hit rate of the full screen: of about 320,000 compounds, about 2,100 (0.66%) were called active. Inconclusive results, whose numbers are uncertain, are shown with a selection of clear calls. Calls follow the shape of the dose curve; as a rule, active = well fitted inhibition curve with a large enough effect in the signal ratio, with a control signal flat (not every such curve was filed as active); inconclusive = small, poorly fitted or top-dose-only effect, or effect the other way, or a change in a side signal; inactive = flat fitted curve, though single readings scatter; the % refers to the signal ratio. Potencies beside an inconclusive call are fits to weak or partial responses and may not hold up.
# Assay: qHTS Assay for Lipid Storage Modulators in Drosophila S3 Cells
# Settings: BODIPY lipid droplet fluorescence, 18-24 h, cells fed with added oleic acid; lipid storage change, negative = inhibition: at 46.1 µM (top of the series) unless noted
# Summary of the method: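 Drosophila S3 cells got compounds at several concentrations plus oleic acid (400 uM solution). Laser-scanning cytometry with 488 nm excitation read lipid droplets at 500-530 nm and cells at 575-640 nm. Percent activity was relative to 20 uM Triacsin C.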
# % is scaled to controls: 0 for no effect and ±100 for the full control effect; potency is read from the fitted curve at half-maximal effect.
Structure (SMILES),"lipid storage change, negative = inhibition",Potency
CCOC(=O)NC(=O)CSc1cc(C)c2cc(C)cc(C)c2n1,inactive,–
O=C(Nc1nccs1)c1cccc(S(=O)(=O)N2CCCC2)c1,–,"inconclusive: 7.31 µM [falling, partial curve, poor fit]"
Cc1cccc2nc(-c3ccccc3)nc(N3CCC(O)(c4ccc(Cl)cc4)CC3)c12,inconclusive: -16.4%,–
COC(=O)c1c(C(=O)OC)c(-c2cccc(C)c2)n2c1CS(=O)C2 (configuration not stated),inconclusive: 16%,–
CCOC(=O)N1CCC(NC(=O)C2CCN(c3ccc(N4CCOCC4)nn3)CC2)CC1,inconclusive: -50.7% [at 0.0737 µM],–
COc1ccc(S(=O)(=O)N(C)CC(=O)Nc2cccc(C(C)=O)c2)cc1,–,"inconclusive: 7.31 µM [activator, partial curve, poor fit]"
COc1ccc(C(CCN2CCOCC2)c2c(O)cc(OC)cc2OC)cc1 (configuration not stated),inconclusive: 10.8%,–
Cc1oc2cc3oc(=O)c(CCC(=O)NCc4ccccn4)c(C)c3cc2c1C,–,"inconclusive: 23.1 µM [activator, single point]"
CCCN(CC(=O)Nc1ccccc1OC)C(=O)c1ccc(S(=O)(=O)Nc2ccccc2)cc1,inconclusive: 6%,–
CCOc1ccc(CCN2C(=O)c3cccnc3C2=O)cc1OCC,inconclusive: -32.9% [cytotoxic] [at 0.00295 µM],–
Cc1ccc(CNC(=O)CSc2ccsc2[N+](=O)[O-])cc1,inconclusive: -30.1%,–
Nc1nc(-c2ccccc2)cc(C(F)(F)F)n1,inconclusive: 40.6%,–
c1ccc(C[C@H]2CN=C(Nc3ccccc3)N2CC2CCC2)cc1,inconclusive: 0.416%,–
CCOC(=O)CSc1nnc(-c2cccs2)n1-c1ccccc1,inconclusive: -106%,–
COc1ccc(N=C2NC(=O)/C(=C/c3ccc(O)c(OC)c3)S2)cc1,–,"inconclusive: 5.8 µM [activator, partial curve]"
O=S(=O)(c1ccccc1)N1CCN(c2nc(-c3cccs3)nc3ccccc23)CC1,inconclusive: -5.29%,–
CC(C)(C)N(C=C(Cl)Cl)C(=O)NC1CCCCC1,inconclusive: -12.5%,–
CC1CCC/C(=C(\C#N)c2nc(-c3cc4ccccc4oc3=O)cs2)C1 (configuration not stated),–,"inconclusive: 1.64 µM [activator, partial curve, poor fit]"
CCCOC(=O)CSc1nc(N)c(C#N)c(CC)c1C#N,inconclusive: 9.23%,–
FC(F)(F)COc1nc(N/N=C/c2cccnc2)nc(N2CCCCC2c2ccccn2)n1 (configuration not stated),inconclusive: -9.65%,–
COc1ccccc1C(=O)NCc1ccc(-c2nc3ccccc3s2)cc1,–,"inconclusive: 16.4 µM [activator, partial curve]"
CCc1ccccc1N(CC(=O)N1CCCCCC1)S(C)(=O)=O,inconclusive: 121%,–
CC1CCCCN1S(=O)(=O)c1ccc(C(=O)Nc2ccccc2-c2nc3ccccc3s2)cc1 (configuration not stated),inconclusive: -5.02%,–
CCC(=O)Nc1cc(NC(=O)CSc2ncc(-c3ccc(F)cc3)n2Cc2ccco2)ccc1C,–,"inconclusive: 0.651 µM [activator, single point]"

# In the list so far, two have a Cl atom:
Structure (SMILES),"lipid storage change, negative = inhibition",Potency
Cc1cccc2nc(-c3ccccc3)nc(N3CCC(O)(c4ccc(Cl)cc4)CC3)c12,inconclusive: -16.4%,–
CC(C)(C)N(C=C(Cl)Cl)C(=O)NC1CCCCC1,inconclusive: -12.5%,–

# More compounds.

Structure (SMILES),"lipid storage change, negative = inhibition",Potency
CCCc1nnc(NC(=O)CCC(=O)N2CCN(S(=O)(=O)c3ccc(OC)cc3)CC2)s1,inconclusive: -29.7%,–
CC(C)(CN=C1NS(=O)(=O)c2ccccc21)CNC(=O)CN1C(=O)c2ccccc2C1=O,inconclusive: 23.3%,–
Cn1/c(=N\NC(=O)c2ccccc2Cl)sc2ccccc21,inconclusive: -10.8%,–
CC(C)(C)NC(=O)CSc1nc(-c2ccccc2)c(-c2ccccc2)[nH]1,inconclusive: -32.6%,–
CC1=C(C(=O)Nc2ccccc2C)C(c2cccs2)NC(=S)N1 (configuration not stated),inconclusive: -3.2%,–
O=C(CSc1nccc(=O)[nH]1)N1CCc2ccccc2C1,–,"inconclusive: 0.731 µM [falling, full curve]"
Cc1ccc(C(=O)OCCN2CCN(c3ncc(C(F)(F)F)cc3Cl)CC2)cc1,inconclusive: 54.2%,–
FC(F)(F)c1ccccc1/C=N/n1c(COc2ccccc2)n[nH]c1=S,–,"inconclusive: 6.51 µM [activator, single point]"
Cc1ccccc1C(=O)N1CCC(C(=O)OCc2nc(N)nc(Nc3ccccc3)n2)CC1,–,"inconclusive: 6.51 µM [activator, single point]"
Cc1ccc(-c2nc(CSCC(=O)Nc3cc(C)on3)c(C)o2)cc1,inconclusive: 10.4% [at 9.22 µM],–
CCOc1ccc(CCNC(=O)COC(=O)c2cc(S(=O)(=O)N3CCOCC3)ccc2F)cc1OCC,–,"inconclusive: 29.1 µM [falling, single point]"
CCCn1c(C)cc(C(=O)CSc2nc3nc(C)cc(C)n3n2)c1C,inconclusive: -14.5%,–
COc1ccc(/C=C(/NC(=O)c2ccco2)C(=O)N2CCCCCC2)cc1OC,inconclusive: 24.3%,–
CC(=O)N1CC(C)Sc2ccc(S(=O)(=O)NCCc3ccc(C)cc3)cc21 (configuration not stated),–,active: 6.51 µM
CCS(=O)(=O)c1ccc(O)c(NC(=O)NC2CCCCC2)c1,inconclusive: -18.4%,–
COc1ccc(C(=O)NCCCNC(=O)c2cccnc2)cc1OC,–,"inconclusive: 0.58 µM [falling, single point]"
COc1ccc(-c2[nH]c(-c3ccc(C)cc3)nc2SCC(=O)NC2CCCC2)cc1,inconclusive: 39.4%,–
Fc1ccc(-n2c(CN3CCCCC3)n[nH]c2=S)cc1,–,active: 1.64 µM
COc1ccc(NC(=O)CC(c2ccc(F)cc2)c2ccc(OC(C)C)cc2)cc1 (configuration not stated),inconclusive: -17.2%,–
CCO/C(C)=N/n1c2nc3ccccc3nc2c2c(=O)n(C3CCCC3)c(C)nc21,inconclusive: 61.3% [at 0.0737 µM],–
CCN(CCCNC(=O)CN1C(=O)COc2ccc(S(=O)(=O)N3CCC(C)CC3)cc21)Cc1ccccc1,inconclusive: 8.61%,–
CCc1ccc(-c2cc3c(=O)n(CC(=O)NCCCN4CCN(Cc5ccccc5)CC4)nc(C)n3n2)cc1,inconclusive: 54.9%,–
CCCc1nc2oc3cc(OC)ccc3c(=O)c2c(=O)n1CCc1ccccc1,inconclusive: 3.91%,–
